Experiments:
primary AML samples = assay: HLA class I ligandome analysis (W6/32 immunoaffinity purification, LC-MS/MS) of primary AML samples; set-up: species or system human; conditions: AML patients (n=15)
[1] = test system: cancer tissues in comparison to non-cancerous tissues and organs; assay: Presentation profile / over-presentation by label-free LC-MS (XPRESIDENT), tumor versus normal tissues, other proliferative diseases; set-up: species or system human; conditions: other proliferative diseases / organs (other than AML) that over- or exclusively present the peptide; Table 5
[2] = HLA class I ligandome, count for the HLA ligand (LiTAP) or, on protein lines, for the source protein (LiTAA)

Row | Substance | Number of positive AMLs (primary AML samples; [2]) | Proliferative disease and location thereof [1] | Number of positive AMLs (primary AML samples; HLA ligand (LiTAP))
1 | 69 (RQIGVEHVV; listed as Homo sapiens) [compound 69] | 1 | brain, cancer, kidney, oncocytoma | –
2 | 198 (IEFTYTAKL; listed as Homo sapiens) [compound 198] | 1 | stomach, metastatic, lung, neuroendocrine carcinoma | –
3 | 286 (SENPSKHDSF; listed as Homo sapiens) [compound 286] | – | stomach, metastatic, breast, carcinoma | 1
4 | 161 (LQQTNSEKI; listed as Homo sapiens) [compound 161] | 1 | kidney, clear cell renal cell carcinoma, parotid; gland, pleomorphic adenoma | –
5 | 309 (RLLPPVGTGR; listed as Homo sapiens) [compound 309] | – | stomach, metastatic, breast, carcinoma | 1
6 | 201 (IPVVHASI; listed as Homo sapiens) [compound 201] | 1 | stomach, adenocarcinoma, colon, adenocarcinoma | –
7 | 40: peptide found in KIF2C (gene looked up) (IYNGKLFDL; listed as Homo sapiens) [compound 40] | 1 | stomach, metastatic, adenocarcinoma | –
8 | 176 (EVIETEKTLY; listed as Homo sapiens) [compound 176] | 1 | colon or rectum, breast, mucinous carcinoma | –
9 | 93 (DIKRGIPN; listed as Homo sapiens) [compound 93] | 1 | stomach, adenocarcinoma, lung, small cell carcinoma | –
10 | 217 (DTFPGPYAVL; listed as Homo sapiens) [compound 217] | 2 | liposarcoma | –
11 | 236 (ETIDSRVQEY; listed as Homo sapiens) [compound 236] | 3 | colon or rectum, ovary, teratoma | –
12 | 241 (KTIAFLLPMF; listed as Homo sapiens) [compound 241] | – | lung, non-small cell lung carcinoma, thymus, thymoma | 1
13 | 147 (TEFRSLVI; listed as Homo sapiens) [compound 147] | 1 | kidney, clear cell renal cell carcinoma, stomach, gastrointestinal stromal tumor (GIST) | –
14 | 177 (MKILNHPNI; listed as Homo sapiens) [compound 177] | 1 | colon or rectum, lung, squamous cell carcinoma | –
15 | 11 (SEQEMNAHL; listed as Homo sapiens) [compound 11] | 1 | kidney, clear cell renal cell carcinoma, bone, non- ossifying fibroma | –
16 | 100 (ALLGVTGAPK; listed as Homo sapiens) [compound 100] | 1 | colon or rectum, spleen, extramedullary; hematopoiesis | –
17 | 321 (KLLAEVTLK; listed as Homo sapiens) [compound 321] | – | breast, carcinoma | 1
18 | 274 (KLDQKLPEL; listed as Homo sapiens) [compound 274] | – | kidney, clear cell renal cell carcinoma, kidney, angiomyolipoma | 1
19 | 22 (TTNHPINPK; listed as Homo sapiens) [compound 22] | – | malignant fibrous histiocytoma | –
20 | 231 (ESAALIHHY; listed as Homo sapiens) [compound 231] | 2 | – | –
21 | 58 (YLLESVNKL; listed as Homo sapiens) [compound 58] | 3 | – | –
22 | 215 (FAALHGPAL; listed as Homo sapiens) [compound 215] | 2 | – | –
